# Results taken from patent US7560259B2, “Glutathione S-transferase sequence variants” (Mayo Foundation for Medical Education and Research, priority 2005, dated 2009).
# Numbering of substitutions follows the chain as printed.
# B1: Cys130Tyr: GSTO2 allozyme having a tyrosine at amino acid residue 130 in place of a cysteine residue (protein)
# chain: MSGDATRTLGKGSQPPGPVPEGLIRIYSMRFCPYSHRTRLVLKAKDIRHEVVNINLRNKPEWYYTKHPFGHIPVLETSQCQLIYESVIACEYLDDAYPGRKLFPYDPYERARQKMLLELFCKVPHLTKEYLVALRCGRECTNLKAALRQEFSNLEEILEYQNTTFFGGTCISMIDYLLWPWFERLDVYGILDCVSHTPALRLWISAMKWDPTVCALLMDKSIFQGFLNLYFQNNPNAFDFGLC
# B2: Asn142Asp/Leu158Ile: double variant GSTO2 allozyme, Asn142Asp and Leu158Ile (protein)
# chain: B1 chain with Y130C, N142D, L158I
# B3: Leu158Ile: GSTO2 allozyme having an isoleucine at amino acid 158 in place of a leucine residue (protein)
# chain: B1 chain with Y130C, L158I
# B4: WT: reference (wild type) human GSTO2 polypeptide, SEQ ID NO:9 (protein)
# chain: B1 chain with Y130C
# modifications: Homo sapien
# Tested on: rabbit reticulocyte lysate (RRL)
# Assay: In vitro translation and protein degradation of 35S-labeled GSTO2 allozymes in rabbit reticulocyte lysate
# Conditions: after 24 hours, untreated RRL with ATP generating system, 37° C.
# Description: In vitro Translation and Degradation: Selected GSTO2 expression constructs were transcribed and translated in vitro in the presence of ^35S-methionine (1000 Ci/mmol, 2.5 mCi total activity) (Amersham Pharmacia Biotech) using the TNT coupled rabbit reticulocyte lysate (RRL) system (Promega, Madison, Wis.). Reaction mixtures used to generate radioactively labeled protein were incubated at 30° C. for 90 minutes, and 5 μl aliquots were used to perform SDS-PAGE with 10% gels. Protein degradation studies were performed as described (Wang et al. (2003) Pharmacogenet. 13:555-564). Briefly, 50 μl of an adenosine 5′-triphosphate (ATP) generating system, 50 μl of “untreated” RRL, and 10 μl of ^35S-methionine radioactively labeled GSTO2 allozyme were mixed. This mixture was incubated at 37° C., and 10 μl aliquots were removed at various time intervals, followed by SDS-PAGE. After electrophoresis, the gels were dried, exposed to X-ray film and the bands of radioactively labeled protein were quantified.
# To investigate the mechanisms responsible for the striking decrease in expression of the GSTO2 Cys130Tyr and Leu158Ile allozymes, protein degradation studies were performed using RRL. Radioactive WT and variant GSTO2 allozymes were synthesized using “treated” RRL, and the recombinant proteins were incubated for various periods of time with “untreated” RRL and an ATP generating system to follow the time course of protein degradation. […] After 24 hours, 26% of Cys130Tyr, 6.6% of Leu158Ile, 5.6% of Asn142Asp/Leu158Ile, and 73% of the WT protein remained. Therefore, accelerated degradation appeared to be responsible, at least in part, for differences in levels of the GSTO2 variant allozymes after expression in COS-1 cells.
row,Molecule,protein remaining [%]
1,B1,26
2,B2,5.6
3,B3,6.6
4,B4,73
